{"source": "PubChem BioAssay AID743121 (NCATS, 2013)", "aim": "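Genes whose silencing strengthens cell killing by camptothecin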 (primary screen)", "cell system": "MDA-MB-231 cells, a human breast cancer line", "knock-down reagent": "single siRNA against human genes, 20 nM siRNA (0.8 pmol per well)", "time to read-out": "120 h (drug added 48 h after transfection, read 72 h later)", "treatment": "camptothecin 20 nM (about EC30) for 72 h; vehicle 0.1% DMSO in parallel plates", "detection": "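CellTiter-Glo ATP signal, scaled to control siRNA as percent viability; sensitisation given as log2 of untreated divided by camptothecin-treated viability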", "reading the numbers": "log2 vehicle/camptothecin viability: higher = stronger sensitisation to camptothecin", "rule for the call": "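Active genes have an RSA gene-level p-value below 0.001, computed from the ratios of their separate siRNAs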", "note": "Shown is one part, drawn at random, of about 26,000 reagents. Over the whole deposit, 167 (0.63%) got an active call. 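Calls are per gene from RSA p-values that are not deposited; an individual active-marked siRNA can sensitise only weakly.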 The numbers tell different reagents against one gene apart. Not all columns of the deposit are shown."}
{"target gene": "SELPLG (selectin P ligand)", "reagent": 1, "log2 vehicle/camptothecin viability": -0.401, "Call": "inactive"}
{"target gene": "SELPLG (selectin P ligand)", "reagent": 2, "log2 vehicle/camptothecin viability": 0.617, "Call": "inactive"}
{"target gene": "SELPLG (selectin P ligand)", "reagent": 3, "log2 vehicle/camptothecin viability": -0.00883, "Call": "inactive"}
{"target gene": "CYP3A4 (cytochrome P450 family 3 subfamily A member 4)", "reagent": 1, "log2 vehicle/camptothecin viability": -0.475, "Call": "inactive"}
{"target gene": "CYP3A4 (cytochrome P450 family 3 subfamily A member 4)", "reagent": 2, "log2 vehicle/camptothecin viability": -0.66, "Call": "inactive"}
{"target gene": "CYP3A4 (cytochrome P450 family 3 subfamily A member 4)", "reagent": 3, "log2 vehicle/camptothecin viability": -0.162, "Call": "inactive"}
{"target gene": "CYP3A4 (cytochrome P450 family 3 subfamily A member 4)", "reagent": 4, "log2 vehicle/camptothecin viability": -0.0731, "Call": "inactive"}
{"target gene": "PPM1A (protein phosphatase, Mg2+/Mn2+ dependent 1A)", "reagent": 1, "log2 vehicle/camptothecin viability": 0.0586, "Call": "inactive"}
{"target gene": "PPM1A (protein phosphatase, Mg2+/Mn2+ dependent 1A)", "reagent": 2, "log2 vehicle/camptothecin viability": -0.228, "Call": "inactive"}
{"target gene": "PPM1A (protein phosphatase, Mg2+/Mn2+ dependent 1A)", "reagent": 3, "log2 vehicle/camptothecin viability": -0.0191, "Call": "inactive"}
{"target gene": "PPM1A (protein phosphatase, Mg2+/Mn2+ dependent 1A)", "reagent": 4, "log2 vehicle/camptothecin viability": -0.344, "Call": "inactive"}
{"target gene": "GIPC1 (GIPC PDZ domain containing family member 1)", "reagent": 1, "log2 vehicle/camptothecin viability": 0.00856, "Call": "inactive"}
{"target gene": "GIPC1 (GIPC PDZ domain containing family member 1)", "reagent": 2, "log2 vehicle/camptothecin viability": -0.403, "Call": "inactive"}
{"target gene": "GIPC1 (GIPC PDZ domain containing family member 1)", "reagent": 3, "log2 vehicle/camptothecin viability": -0.0836, "Call": "inactive"}

Copied from above for reference:
{"target gene": "PPM1A (protein phosphatase, Mg2+/Mn2+ dependent 1A)", "reagent": 2, "log2 vehicle/camptothecin viability": -0.228, "Call": "inactive"}
{"target gene": "PPM1A (protein phosphatase, Mg2+/Mn2+ dependent 1A)", "reagent": 3, "log2 vehicle/camptothecin viability": -0.0191, "Call": "inactive"}

Next reagents follow:
{"target gene": "ADRA2C (adrenoceptor alpha 2C)", "reagent": 1, "log2 vehicle/camptothecin viability": 0.763, "Call": "inactive"}
{"target gene": "ADRA2C (adrenoceptor alpha 2C)", "reagent": 2, "log2 vehicle/camptothecin viability": -0.107, "Call": "inactive"}
{"target gene": "ADRA2C (adrenoceptor alpha 2C)", "reagent": 3, "log2 vehicle/camptothecin viability": -0.279, "Call": "inactive"}
{"target gene": "ADRA2C (adrenoceptor alpha 2C)", "reagent": 4, "log2 vehicle/camptothecin viability": -0.0809, "Call": "inactive"}
{"target gene": "TUBB4A (tubulin beta 4A class IVa)", "reagent": 1, "log2 vehicle/camptothecin viability": -0.218, "Call": "inactive"}
{"target gene": "TUBB4A (tubulin beta 4A class IVa)", "reagent": 2, "log2 vehicle/camptothecin viability": -0.156, "Call": "inactive"}
{"target gene": "TUBB4A (tubulin beta 4A class IVa)", "reagent": 3, "log2 vehicle/camptothecin viability": -0.495, "Call": "inactive"}
{"target gene": "TUBB4A (tubulin beta 4A class IVa)", "reagent": 4, "log2 vehicle/camptothecin viability": -0.324, "Call": "inactive"}
{"target gene": "PKD1L2 (polycystin 1 like 2 (gene/pseudogene))", "reagent": 1, "log2 vehicle/camptothecin viability": -0.421, "Call": "inactive"}
{"target gene": "PKD1L2 (polycystin 1 like 2 (gene/pseudogene))", "reagent": 2, "log2 vehicle/camptothecin viability": -0.24, "Call": "inactive"}
{"target gene": "PKD1L2 (polycystin 1 like 2 (gene/pseudogene))", "reagent": 3, "log2 vehicle/camptothecin viability": -0.134, "Call": "inactive"}
{"target gene": "PKD1L2 (polycystin 1 like 2 (gene/pseudogene))", "reagent": 4, "log2 vehicle/camptothecin viability": -0.212, "Call": "inactive"}
